Test results reported in article PMC11392818.
No constants are given. Whether binding was seen depends on the method and setting. Binding seen in cells or lysates may run through a third protein. Some entries that bind do so weakly or less than the wild type.

Sequences of proteins named here, by UniProt entry; tags and fusion partners are left off.
UniProt Q8N884: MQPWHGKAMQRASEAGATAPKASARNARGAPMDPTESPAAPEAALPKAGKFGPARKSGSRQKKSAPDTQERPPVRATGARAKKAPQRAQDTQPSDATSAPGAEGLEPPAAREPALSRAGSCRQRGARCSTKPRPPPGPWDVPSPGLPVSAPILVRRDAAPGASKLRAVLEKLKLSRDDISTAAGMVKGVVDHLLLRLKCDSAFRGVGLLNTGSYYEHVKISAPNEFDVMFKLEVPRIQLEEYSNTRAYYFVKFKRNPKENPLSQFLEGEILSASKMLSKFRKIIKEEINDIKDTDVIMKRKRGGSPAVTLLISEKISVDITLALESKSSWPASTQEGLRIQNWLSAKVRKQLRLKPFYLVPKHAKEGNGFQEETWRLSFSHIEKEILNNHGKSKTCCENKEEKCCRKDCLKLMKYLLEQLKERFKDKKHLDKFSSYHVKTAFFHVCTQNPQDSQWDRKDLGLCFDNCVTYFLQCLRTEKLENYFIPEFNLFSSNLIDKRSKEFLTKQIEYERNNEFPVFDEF
UniProt P51532: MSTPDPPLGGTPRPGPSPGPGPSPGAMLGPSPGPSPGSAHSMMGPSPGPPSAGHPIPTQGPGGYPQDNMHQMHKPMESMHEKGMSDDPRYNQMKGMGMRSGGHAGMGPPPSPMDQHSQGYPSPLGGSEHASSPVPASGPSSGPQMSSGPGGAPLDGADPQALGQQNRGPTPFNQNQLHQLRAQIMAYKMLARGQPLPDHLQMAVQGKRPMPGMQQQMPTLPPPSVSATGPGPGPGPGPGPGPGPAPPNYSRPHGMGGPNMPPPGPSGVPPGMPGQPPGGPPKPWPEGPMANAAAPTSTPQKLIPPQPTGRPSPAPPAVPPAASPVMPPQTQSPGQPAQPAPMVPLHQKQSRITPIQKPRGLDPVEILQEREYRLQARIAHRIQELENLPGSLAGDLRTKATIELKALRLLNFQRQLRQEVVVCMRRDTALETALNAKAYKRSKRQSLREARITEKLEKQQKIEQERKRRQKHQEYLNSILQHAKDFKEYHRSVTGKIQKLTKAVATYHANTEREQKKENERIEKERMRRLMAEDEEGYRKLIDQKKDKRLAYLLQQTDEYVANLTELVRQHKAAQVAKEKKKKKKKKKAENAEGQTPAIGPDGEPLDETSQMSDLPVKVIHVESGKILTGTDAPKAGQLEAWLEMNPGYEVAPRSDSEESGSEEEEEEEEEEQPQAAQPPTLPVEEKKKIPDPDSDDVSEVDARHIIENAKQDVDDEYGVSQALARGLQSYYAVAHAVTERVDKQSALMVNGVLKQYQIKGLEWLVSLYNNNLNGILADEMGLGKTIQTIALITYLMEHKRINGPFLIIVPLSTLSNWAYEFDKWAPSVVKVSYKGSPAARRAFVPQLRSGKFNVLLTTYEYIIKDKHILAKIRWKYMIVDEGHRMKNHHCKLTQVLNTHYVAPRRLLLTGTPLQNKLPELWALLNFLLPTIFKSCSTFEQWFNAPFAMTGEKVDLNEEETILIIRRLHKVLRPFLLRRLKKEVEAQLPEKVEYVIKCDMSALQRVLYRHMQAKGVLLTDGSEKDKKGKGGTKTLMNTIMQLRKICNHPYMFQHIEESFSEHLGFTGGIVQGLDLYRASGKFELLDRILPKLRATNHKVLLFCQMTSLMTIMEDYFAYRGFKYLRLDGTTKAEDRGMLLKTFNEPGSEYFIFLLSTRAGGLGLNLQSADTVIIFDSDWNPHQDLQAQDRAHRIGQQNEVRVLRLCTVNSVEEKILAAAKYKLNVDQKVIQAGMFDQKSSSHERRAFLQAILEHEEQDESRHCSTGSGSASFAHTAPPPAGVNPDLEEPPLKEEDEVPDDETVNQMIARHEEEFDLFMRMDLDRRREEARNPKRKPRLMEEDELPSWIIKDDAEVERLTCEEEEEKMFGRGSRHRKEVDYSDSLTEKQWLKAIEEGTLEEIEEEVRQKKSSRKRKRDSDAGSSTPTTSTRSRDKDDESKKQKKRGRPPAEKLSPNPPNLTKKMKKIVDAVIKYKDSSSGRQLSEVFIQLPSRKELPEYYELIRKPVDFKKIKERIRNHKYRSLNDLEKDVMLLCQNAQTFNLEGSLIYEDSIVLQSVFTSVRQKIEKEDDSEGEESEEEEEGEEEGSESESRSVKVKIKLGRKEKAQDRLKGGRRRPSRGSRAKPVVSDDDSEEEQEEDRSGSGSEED
UniProt Q8TAQ2: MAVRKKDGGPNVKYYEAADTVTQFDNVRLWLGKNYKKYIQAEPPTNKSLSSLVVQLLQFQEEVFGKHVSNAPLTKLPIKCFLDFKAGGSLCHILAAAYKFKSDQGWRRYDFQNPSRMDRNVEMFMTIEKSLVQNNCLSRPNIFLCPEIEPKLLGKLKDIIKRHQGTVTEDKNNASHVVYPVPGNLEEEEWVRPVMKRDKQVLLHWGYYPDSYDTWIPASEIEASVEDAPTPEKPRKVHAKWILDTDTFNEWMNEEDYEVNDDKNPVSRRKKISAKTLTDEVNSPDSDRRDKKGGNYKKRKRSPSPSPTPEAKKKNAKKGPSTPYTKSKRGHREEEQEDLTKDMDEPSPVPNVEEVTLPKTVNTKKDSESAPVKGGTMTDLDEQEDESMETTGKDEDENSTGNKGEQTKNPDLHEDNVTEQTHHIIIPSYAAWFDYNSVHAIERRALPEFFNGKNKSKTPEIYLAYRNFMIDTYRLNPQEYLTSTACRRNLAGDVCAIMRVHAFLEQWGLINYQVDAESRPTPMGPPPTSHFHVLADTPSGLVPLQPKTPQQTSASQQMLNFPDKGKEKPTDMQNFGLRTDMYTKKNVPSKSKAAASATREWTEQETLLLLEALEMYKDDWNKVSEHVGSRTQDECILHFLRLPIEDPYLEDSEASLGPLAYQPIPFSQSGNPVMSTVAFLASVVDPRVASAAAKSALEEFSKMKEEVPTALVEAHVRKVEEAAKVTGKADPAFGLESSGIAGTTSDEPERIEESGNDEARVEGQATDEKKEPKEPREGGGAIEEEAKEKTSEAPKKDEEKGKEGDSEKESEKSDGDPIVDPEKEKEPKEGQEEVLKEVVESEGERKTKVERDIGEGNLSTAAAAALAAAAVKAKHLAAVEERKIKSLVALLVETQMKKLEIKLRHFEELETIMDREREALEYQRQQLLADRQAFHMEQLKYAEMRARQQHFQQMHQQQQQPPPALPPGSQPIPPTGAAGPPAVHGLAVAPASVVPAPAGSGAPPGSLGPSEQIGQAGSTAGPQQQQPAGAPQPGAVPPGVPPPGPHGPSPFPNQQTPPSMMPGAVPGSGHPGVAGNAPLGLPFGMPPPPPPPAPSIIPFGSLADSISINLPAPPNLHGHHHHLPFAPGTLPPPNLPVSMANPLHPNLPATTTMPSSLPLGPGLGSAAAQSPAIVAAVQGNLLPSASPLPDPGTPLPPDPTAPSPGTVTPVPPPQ

Target: cGAS (cyclic GMP-AMP synthase) of HCT116 cells (human (endogenous in HCT116)) (UniProt Q8N884)
Assay: co-IP; immunoprecipitation and immunoblot from HCT116 whole-cell lysates; nuclease benzonase in all buffers to minimize post-lysis DNA binding by cGAS

binding	Substance
binds	SMARCA4 (from UniProt P51532 1-1647)
binds	SMARCC2 (from UniProt Q8TAQ2 1-1214)
